Paper PMC5650530 (ACS chemical biology, 2017)

Molecular target: T1, rSGPL1 (Rattus norvegicus, UniProt Q8CHN6)
T1 sequence (Q8CHN6 1-568): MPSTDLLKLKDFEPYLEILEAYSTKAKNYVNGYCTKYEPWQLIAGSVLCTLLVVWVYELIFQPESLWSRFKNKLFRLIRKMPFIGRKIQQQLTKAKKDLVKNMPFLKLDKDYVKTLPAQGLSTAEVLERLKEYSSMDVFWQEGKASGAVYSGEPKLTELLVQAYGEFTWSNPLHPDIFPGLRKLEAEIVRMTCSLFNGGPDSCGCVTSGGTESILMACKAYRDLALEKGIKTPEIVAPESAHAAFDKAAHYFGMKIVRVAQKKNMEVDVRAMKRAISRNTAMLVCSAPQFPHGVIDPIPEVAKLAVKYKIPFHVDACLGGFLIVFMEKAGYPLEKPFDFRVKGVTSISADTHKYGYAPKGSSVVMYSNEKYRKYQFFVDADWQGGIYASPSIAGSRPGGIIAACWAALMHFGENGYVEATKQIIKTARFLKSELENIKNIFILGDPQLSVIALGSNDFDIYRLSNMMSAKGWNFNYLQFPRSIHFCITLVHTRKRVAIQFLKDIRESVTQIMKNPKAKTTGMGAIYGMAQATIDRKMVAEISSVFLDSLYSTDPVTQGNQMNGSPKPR
Format: biochemical

- IC50: 4.3 µM
SMILES: Clc1ccc(COC(Cn2ccnc2)c2ccc(Cl)cc2Cl)c(Cl)c1 (stereo not shown) [miconazole]
